Results on 19 targets are retold here after the supplement of paper PMC10849652.

Protein sequences, listed by entry. Tags and fused reporters are not part of them. Lines headed by an entry give the natural chain unless they say otherwise; changes in a name come on top.
UniProt Q8IW35: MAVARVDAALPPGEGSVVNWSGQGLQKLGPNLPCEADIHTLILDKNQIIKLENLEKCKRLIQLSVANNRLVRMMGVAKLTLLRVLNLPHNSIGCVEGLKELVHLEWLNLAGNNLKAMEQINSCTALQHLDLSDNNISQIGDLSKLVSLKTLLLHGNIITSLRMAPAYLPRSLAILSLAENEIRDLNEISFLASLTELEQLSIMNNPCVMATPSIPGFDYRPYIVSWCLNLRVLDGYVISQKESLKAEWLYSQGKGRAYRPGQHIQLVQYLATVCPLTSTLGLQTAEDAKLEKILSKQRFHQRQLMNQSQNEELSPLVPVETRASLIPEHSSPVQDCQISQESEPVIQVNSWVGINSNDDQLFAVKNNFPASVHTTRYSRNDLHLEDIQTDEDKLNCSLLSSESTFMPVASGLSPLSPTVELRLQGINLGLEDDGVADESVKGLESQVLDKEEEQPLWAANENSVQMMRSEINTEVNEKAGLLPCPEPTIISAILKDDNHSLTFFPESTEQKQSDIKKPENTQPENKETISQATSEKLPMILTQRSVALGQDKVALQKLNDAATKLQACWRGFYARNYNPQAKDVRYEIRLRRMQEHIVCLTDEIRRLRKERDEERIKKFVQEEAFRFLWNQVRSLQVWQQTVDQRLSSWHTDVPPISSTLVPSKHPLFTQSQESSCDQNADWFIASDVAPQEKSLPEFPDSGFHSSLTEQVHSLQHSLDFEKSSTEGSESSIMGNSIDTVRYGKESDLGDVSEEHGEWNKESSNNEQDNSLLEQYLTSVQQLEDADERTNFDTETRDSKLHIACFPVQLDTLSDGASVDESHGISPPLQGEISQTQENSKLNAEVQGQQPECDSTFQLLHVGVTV
UniProt Q01850: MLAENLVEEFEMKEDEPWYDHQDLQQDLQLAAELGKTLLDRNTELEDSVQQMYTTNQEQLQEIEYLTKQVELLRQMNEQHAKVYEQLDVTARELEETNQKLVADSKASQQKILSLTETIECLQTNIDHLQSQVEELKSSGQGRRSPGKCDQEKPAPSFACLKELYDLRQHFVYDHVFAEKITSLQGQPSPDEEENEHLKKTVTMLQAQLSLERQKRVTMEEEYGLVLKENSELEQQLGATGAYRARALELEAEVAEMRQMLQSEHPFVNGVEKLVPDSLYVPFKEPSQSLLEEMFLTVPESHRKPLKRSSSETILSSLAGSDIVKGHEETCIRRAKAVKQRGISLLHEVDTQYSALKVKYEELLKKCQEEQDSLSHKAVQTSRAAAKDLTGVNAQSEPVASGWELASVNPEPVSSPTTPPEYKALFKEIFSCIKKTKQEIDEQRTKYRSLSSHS
UniProt Q96G28: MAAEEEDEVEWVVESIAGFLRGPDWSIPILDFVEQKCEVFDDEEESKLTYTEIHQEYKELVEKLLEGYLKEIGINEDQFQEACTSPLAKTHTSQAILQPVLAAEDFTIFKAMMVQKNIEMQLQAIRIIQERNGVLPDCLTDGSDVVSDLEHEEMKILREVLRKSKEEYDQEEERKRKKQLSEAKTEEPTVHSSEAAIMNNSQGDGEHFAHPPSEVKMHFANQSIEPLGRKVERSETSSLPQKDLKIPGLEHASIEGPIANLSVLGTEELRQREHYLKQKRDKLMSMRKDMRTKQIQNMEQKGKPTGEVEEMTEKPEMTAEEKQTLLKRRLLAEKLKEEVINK
UniProt O00748: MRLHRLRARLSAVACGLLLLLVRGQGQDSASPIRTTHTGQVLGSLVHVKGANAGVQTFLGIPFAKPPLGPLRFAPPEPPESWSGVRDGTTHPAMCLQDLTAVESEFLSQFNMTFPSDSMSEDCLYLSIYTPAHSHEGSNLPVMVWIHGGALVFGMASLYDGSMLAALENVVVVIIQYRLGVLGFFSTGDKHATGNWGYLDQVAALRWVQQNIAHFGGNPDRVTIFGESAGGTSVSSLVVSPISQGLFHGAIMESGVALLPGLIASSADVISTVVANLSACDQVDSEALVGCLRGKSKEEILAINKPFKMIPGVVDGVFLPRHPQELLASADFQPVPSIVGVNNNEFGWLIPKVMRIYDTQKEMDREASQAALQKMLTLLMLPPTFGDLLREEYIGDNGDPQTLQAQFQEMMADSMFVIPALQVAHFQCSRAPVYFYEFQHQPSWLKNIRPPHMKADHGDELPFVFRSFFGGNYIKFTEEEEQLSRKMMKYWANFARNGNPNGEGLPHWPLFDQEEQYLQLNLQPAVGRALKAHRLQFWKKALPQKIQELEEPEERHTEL
UniProt Q00535, whole entry, looked up: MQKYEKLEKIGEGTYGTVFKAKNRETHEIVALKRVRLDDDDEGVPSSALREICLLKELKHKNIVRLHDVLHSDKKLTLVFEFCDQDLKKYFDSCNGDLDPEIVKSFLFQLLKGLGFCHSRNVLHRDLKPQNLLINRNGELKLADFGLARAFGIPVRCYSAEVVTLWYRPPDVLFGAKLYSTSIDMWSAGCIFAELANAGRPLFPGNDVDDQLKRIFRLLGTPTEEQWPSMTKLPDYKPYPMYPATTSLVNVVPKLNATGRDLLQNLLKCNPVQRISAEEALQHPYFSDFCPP
UniProt Q8WUX2: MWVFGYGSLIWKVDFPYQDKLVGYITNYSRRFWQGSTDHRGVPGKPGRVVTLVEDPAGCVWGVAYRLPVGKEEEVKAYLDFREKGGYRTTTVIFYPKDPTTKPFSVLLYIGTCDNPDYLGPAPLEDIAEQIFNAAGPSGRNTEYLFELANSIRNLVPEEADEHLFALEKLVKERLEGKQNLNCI
UniProt Q9NYV4, whole entry, looked up: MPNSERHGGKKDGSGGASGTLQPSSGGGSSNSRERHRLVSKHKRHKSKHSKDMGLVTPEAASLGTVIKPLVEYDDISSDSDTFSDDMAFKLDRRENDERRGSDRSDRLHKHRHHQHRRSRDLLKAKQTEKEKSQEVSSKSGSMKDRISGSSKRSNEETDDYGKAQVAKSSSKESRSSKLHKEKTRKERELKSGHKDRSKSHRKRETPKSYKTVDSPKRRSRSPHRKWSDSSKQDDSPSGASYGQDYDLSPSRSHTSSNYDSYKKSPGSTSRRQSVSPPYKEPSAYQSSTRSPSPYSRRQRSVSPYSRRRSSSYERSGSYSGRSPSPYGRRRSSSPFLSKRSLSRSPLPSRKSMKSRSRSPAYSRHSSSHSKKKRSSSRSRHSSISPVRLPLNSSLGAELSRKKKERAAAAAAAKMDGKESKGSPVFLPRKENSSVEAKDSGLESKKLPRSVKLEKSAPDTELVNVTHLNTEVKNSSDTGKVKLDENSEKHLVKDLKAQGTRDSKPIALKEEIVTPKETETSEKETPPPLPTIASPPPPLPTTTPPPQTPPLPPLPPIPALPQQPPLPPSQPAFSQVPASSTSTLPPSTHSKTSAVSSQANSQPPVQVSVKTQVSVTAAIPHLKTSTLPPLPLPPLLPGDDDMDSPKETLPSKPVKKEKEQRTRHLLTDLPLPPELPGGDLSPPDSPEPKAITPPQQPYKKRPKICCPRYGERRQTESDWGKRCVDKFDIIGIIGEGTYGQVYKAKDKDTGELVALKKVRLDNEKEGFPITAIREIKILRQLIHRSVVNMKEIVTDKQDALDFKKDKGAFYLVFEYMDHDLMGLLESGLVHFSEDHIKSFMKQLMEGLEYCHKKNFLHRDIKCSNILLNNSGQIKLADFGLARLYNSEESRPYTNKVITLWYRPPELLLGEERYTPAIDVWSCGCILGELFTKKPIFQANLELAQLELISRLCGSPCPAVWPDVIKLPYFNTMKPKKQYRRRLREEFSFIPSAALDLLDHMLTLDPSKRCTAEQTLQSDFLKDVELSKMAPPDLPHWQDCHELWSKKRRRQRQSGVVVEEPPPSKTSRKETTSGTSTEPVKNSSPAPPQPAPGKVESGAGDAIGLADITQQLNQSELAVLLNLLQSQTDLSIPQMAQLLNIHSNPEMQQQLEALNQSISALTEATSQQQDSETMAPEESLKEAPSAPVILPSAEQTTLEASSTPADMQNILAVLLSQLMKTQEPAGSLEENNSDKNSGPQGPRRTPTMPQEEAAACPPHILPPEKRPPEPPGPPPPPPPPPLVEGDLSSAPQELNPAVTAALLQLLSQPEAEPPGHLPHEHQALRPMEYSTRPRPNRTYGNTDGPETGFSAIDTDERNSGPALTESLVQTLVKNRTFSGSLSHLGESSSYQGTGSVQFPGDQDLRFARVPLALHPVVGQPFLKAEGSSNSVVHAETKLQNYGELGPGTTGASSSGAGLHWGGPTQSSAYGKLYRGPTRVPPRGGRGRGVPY
UniProt Q00534, whole entry, looked up: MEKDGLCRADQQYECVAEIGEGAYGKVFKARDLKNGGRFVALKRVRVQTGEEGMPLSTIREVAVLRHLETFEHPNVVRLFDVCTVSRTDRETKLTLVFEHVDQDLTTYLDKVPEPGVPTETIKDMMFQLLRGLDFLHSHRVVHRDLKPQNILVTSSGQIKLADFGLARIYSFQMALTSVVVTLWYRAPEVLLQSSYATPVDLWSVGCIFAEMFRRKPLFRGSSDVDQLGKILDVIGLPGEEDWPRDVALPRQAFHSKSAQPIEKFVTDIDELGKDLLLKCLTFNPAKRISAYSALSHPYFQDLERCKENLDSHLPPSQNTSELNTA
UniProt P50613: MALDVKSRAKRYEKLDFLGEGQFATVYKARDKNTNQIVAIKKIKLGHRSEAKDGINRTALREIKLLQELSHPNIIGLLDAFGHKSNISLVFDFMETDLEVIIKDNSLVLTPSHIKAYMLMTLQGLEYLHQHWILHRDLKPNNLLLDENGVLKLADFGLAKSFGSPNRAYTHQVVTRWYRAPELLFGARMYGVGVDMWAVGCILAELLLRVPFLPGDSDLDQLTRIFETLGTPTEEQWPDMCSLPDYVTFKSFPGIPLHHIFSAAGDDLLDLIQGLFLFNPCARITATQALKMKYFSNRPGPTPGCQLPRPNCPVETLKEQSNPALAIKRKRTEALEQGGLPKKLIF
UniProt Q96FF9: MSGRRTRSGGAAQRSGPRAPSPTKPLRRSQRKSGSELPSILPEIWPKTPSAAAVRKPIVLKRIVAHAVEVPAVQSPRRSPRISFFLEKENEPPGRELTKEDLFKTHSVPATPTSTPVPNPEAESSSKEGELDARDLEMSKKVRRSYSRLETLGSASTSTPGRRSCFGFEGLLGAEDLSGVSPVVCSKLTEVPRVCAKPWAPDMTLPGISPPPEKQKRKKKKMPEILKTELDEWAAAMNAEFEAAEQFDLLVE
UniProt Q6ZMG9: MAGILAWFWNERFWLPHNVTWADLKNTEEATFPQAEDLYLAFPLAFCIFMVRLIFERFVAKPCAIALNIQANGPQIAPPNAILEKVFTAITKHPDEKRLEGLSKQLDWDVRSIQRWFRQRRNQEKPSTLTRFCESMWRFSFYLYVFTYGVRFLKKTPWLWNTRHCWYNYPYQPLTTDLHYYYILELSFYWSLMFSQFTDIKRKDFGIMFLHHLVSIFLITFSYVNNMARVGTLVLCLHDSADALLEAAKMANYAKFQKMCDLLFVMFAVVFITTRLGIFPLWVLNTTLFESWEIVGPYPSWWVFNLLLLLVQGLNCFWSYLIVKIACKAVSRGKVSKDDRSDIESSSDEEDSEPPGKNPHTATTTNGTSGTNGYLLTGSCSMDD
UniProt Q96JB5: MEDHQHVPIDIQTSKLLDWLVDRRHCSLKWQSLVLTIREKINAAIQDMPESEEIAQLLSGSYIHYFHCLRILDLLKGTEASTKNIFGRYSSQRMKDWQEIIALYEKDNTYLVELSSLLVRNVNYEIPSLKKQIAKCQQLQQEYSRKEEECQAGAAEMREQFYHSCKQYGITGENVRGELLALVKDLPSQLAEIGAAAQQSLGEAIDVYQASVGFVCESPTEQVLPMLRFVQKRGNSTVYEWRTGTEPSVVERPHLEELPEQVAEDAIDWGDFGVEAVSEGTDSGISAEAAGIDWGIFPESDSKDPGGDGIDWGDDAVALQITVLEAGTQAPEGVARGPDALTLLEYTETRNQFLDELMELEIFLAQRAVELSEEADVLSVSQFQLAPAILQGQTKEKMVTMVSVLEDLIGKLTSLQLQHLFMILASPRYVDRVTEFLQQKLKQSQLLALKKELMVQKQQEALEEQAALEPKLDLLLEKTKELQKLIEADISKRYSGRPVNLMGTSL
UniProt O95319: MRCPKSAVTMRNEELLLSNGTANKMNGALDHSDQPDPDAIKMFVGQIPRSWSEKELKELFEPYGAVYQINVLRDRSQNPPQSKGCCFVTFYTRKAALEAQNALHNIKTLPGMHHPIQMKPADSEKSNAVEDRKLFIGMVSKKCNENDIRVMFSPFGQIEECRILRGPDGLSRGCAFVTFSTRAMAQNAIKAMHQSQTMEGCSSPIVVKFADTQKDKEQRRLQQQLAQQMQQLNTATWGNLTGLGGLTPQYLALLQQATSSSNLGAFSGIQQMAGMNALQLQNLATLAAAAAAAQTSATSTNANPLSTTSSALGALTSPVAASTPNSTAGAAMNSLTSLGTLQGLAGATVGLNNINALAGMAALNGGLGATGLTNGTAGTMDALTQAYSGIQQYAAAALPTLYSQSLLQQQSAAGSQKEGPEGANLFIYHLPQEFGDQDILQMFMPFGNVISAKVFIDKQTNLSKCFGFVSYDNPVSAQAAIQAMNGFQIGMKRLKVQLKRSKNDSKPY

This is one part of the list.

Compound in this experiment: Cc1ccc(-n2nc(C(C)(C)C)cc2NC(=O)Nc2ccc(OCCN3CCOCC3)c3ccccc23)cc1 [doramapimod]
The experiment in a line: log2 fold change, soluble protein after heating vs DMSO (PISA); higher = thermal stabilisation; K562 lysate, 10 uM; active = over 0.2 and 3.5 SD of the protein, either way, in both replicates (recomputed). The procedure, abridged: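 Values give the log-two fold change in thermal stability against solvent controls, from duplicates. Crude K562 extract at 1 mg/mL protein, made by dounce homogenisation in PBS pH 7.4 with 1 mM MgCl2, was treated with 10 μM compound for 30 min. After 3 min heating across 48°C-58°C, aliquots were pooled, adjusted to 0.5% NP-40 at 4°C and centrifuged at 21,000xg for 90 min. The supernatant was measured by TMTpro 16plex LC-MS/MS with channel sums equalised.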
As to CDC37 (UniProt Q16543), the log2 fold change is inactive: -0.042. As for CEP97 (UniProt Q8IW35), the figure is inactive: -0.025; as for CDC5L (UniProt Q99459), inactive: 0.006; as for CDR2 (UniProt Q01850), inactive: -0.009.

CFAP36 (UniProt Q96G28): the log2 fold change was inactive: -0.06.

As for CERT isoform 3 (UniProt Q9Y5P4), the log2 fold change was inactive: 0.026. As for CDAN1 (UniProt Q8IWY9), the figure is inactive: -0.021; as for CES2 isoform 4 (UniProt O00748), inactive: 0.015.

As to CDK5 (UniProt Q00535), the log2 fold change was inactive: 0.423. Regarding CHAC2 (UniProt Q8WUX2), the log2 fold change is inactive: -0.01.

In the case of CDK12 (UniProt Q9NYV4), the log2 fold change was inactive: 0.032.

CDC73 (UniProt Q6P1J9): the log2 fold change is inactive: 0.026.

Take CDK6 (UniProt Q00534): the log2 fold change is inactive: -0.01.

Consider CDK7 (UniProt P50613), for which the log2 fold change is inactive: -0.036. For the target CDCA5 (UniProt Q96FF9), the log2 fold change is inactive: 0.323. The same measure for CERS6 isoform 2 (UniProt Q6ZMG9): inactive: -0.044.

In the case of CFAP298 (UniProt P57076), the log2 fold change was inactive: 0.026.

Take CDK5RAP3 isoform 4 (UniProt Q96JB5): the log2 fold change is inactive: 0.017. The same measure for CELF2 isoform 3 (UniProt O95319): active: -0.579.
